These results are taken from paper PMC7819943, “Rice protein-binding microarrays: a tool to detect cis-acting elements near promoter regions in rice”.

Some of the results follow.

The experiment has as its target T1, OsSMF1 (Oryza sativa, UniProt Q6ZLB0 1-436).
T1 sequence: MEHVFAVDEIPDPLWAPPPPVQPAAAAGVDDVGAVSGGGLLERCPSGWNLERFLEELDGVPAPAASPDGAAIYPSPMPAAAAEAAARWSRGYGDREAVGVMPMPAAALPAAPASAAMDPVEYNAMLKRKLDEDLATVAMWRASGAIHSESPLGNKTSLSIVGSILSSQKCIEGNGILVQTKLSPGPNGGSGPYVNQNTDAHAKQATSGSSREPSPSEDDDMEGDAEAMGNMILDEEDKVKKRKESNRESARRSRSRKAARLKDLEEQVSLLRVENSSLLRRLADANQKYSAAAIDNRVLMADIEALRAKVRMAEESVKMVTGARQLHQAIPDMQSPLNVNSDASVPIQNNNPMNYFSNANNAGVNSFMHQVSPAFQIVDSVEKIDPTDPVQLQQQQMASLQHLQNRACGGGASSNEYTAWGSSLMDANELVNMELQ
Kind of experiment: protein-binding microarray (RPBM); PBS, 2% BSA, 51.3 ng/ul salmon testes DNA, 50 uM zinc acetate, 200 nM TF, 25 C, 1 h; high values mean tight binding. The conditions noted are these: protein: recombinant; tags: N-terminal polyhistidine and DsRed monomer fusion (pET32a); chain copies: 2; label: CyDye5-dUTP incorporated in the synthesized complementary strand; 3' TTTTT single-stranded linker to array surface; dsDNA, one strand shown. The essentials: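 A custom Agilent array was converted to double-stranded form by primer extension with Cy5-dUTP and blocked with 2% BSA. Protein at 200 nM in PBS with 2% BSA, salmon testes DNA and 50 µM zinc acetate was applied for 1 h at 25 °C, followed by washing. The proteins were polyhistidine–DsRed N-terminal fusions of transcription factors, expressed in E. coli BL21-CodonPlus and Ni–NTA-purified. The binding signal is per-feature fluorescence intensity (arbitrary units) from an Axon 4000B scanner.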
Take “TTGATAATTACTCTTACGTCCCTCACCCTATGCTCCTGTGCGGAGTCACCTAGTGCAG”: the binding signal is 3440 fluorescence intensity (a.u.).

In the case of “GCTATATGTTAGCCACCGCCACCGGACGAGACGACGGATCCGGAGTCACCTAGTGCAG”, the binding signal is 3160 fluorescence intensity (a.u.).

For the sequence “CATAATCTGATGTGTTATTATTGATCTATGTAGAGGACACCGGAGTCACCTAGTGCAG”, the binding signal was 4730 fluorescence intensity (a.u.).

“TGCCACTAGAACCCGTTCGTACAACGCATTCACTGCCACACGGAGTCACCTAGTGCAG”: the binding signal was 3400 fluorescence intensity (a.u.).

As to “CACAGGAGGGTGGCGAGAGGGAGAGTGTGAGGAGCTGAGACGGAGTCACCTAGTGCAG”, the binding signal is 3500 fluorescence intensity (a.u.).

Regarding “CCCAATCGCCACCGCGCCCGTACGTCTATACAGCGTGGCACGGAGTCACCTAGTGCAG”, the binding signal was 4840 fluorescence intensity (a.u.).

With “GGCGTGATGTGGGCGGCACGCACGCACGCACGCCCTCGCGCGGAGTCACCTAGTGCAG”, the binding signal was 3840 fluorescence intensity (a.u.).

Take “CTAGAGAAGAAGAGAAGTGTGTCTGACAGTGGGCCCAACCCGGAGTCACCTAGTGCAG”: the binding signal is 3210 fluorescence intensity (a.u.).

For “ATTTCGCCAACCTCCCGGCTCCCGCTGCCAGTTTCGATTTCGGAGTCACCTAGTGCAG”, the binding signal is 3420 fluorescence intensity (a.u.).

Consider “ACAAACTTTGTATACGTGTATAAAATATTGATATATGTACCGGAGTCACCTAGTGCAG”, for which the binding signal was 4410 fluorescence intensity (a.u.).

For the sequence “TTTGAGAGCAATCGGCCACCCCAACTGCCTGCCAGTGAATCGGAGTCACCTAGTGCAG”, the binding signal is 21500 fluorescence intensity (a.u.).

Turning to “GGCTCCCCTGCTGCTAATACTCTGCGTCACTGCCGCTTGACGGAGTCACCTAGTGCAG”, the binding signal was 5590 fluorescence intensity (a.u.).

As to “TGAACTTAGACAACTCAGCGCCATATCAACTGACGCTGAACGGAGTCACCTAGTGCAG”, the binding signal was 3450 fluorescence intensity (a.u.).

For the sequence “ACCTGTGGCGGGTGTCGACGGTGCACCGCGTGGAGGAGCTCGGAGTCACCTAGTGCAG”, the binding signal was 3140 fluorescence intensity (a.u.).

With “AGGAATCGAGGACAAGCCGGCGGTGGGCAAGGAGACGTGGCGGAGTCACCTAGTGCAG”, the binding signal was 4430 fluorescence intensity (a.u.).

As for “AAGCTGCTCGACGACGACTGAACTGAGTGTGACTGAGTCACGGAGTCACCTAGTGCAG”, the binding signal was 4030 fluorescence intensity (a.u.).

In the case of “CTTGATTACCGTCATTAGTCAAAATCGCAGTTCACATCATCGGAGTCACCTAGTGCAG”, the binding signal is 3440 fluorescence intensity (a.u.).

Regarding “AAAACTGGCCCGGTCTATCATGACGCACAGCCTGCTCAGCCGGAGTCACCTAGTGCAG”, the binding signal is 5680 fluorescence intensity (a.u.).

For the sequence “TTAGGCCGACGTCCTCCTCGCAGCCACGCGCTACGCCTCCCGGAGTCACCTAGTGCAG”, the binding signal is 3730 fluorescence intensity (a.u.).

On to “TTTGGACACTTTCCATGTGCCATGACTCATGGCCAACTTTCGGAGTCACCTAGTGCAG”, for which the binding signal is 9010 fluorescence intensity (a.u.).

Regarding “ATTAATGGCAAAAGTTCACAAACTTTGACTTTTGAAACGCCGGAGTCACCTAGTGCAG”, the binding signal is 22800 fluorescence intensity (a.u.).

Take “TTCTACATTACACCTAGTGGCTTTGTCAGCAATCAGCATACGGAGTCACCTAGTGCAG”: the binding signal was 3440 fluorescence intensity (a.u.).

With “TGTCGTAGGCGGCGGCGGGAGGCGCCACGTGTCCGCCTCCCGGAGTCACCTAGTGCAG”, the binding signal is 16700 fluorescence intensity (a.u.).

For “GGAAATACATGACGTCATAACTGCTAACCACAATTCCCTCCGGAGTCACCTAGTGCAG”, the binding signal was 10400 fluorescence intensity (a.u.).

As for “GATCGATCGAGCTGAGCTAACATCTCACATCACCATATATCGGAGTCACCTAGTGCAG”, the binding signal was 3360 fluorescence intensity (a.u.).

Regarding “ATTACTACCAGCAGTATATCCTACTATCAGCGCACTGCACCGGAGTCACCTAGTGCAG”, the binding signal was 3270 fluorescence intensity (a.u.).

On to “TTACGAGACGAATCTTTTAAGACTAATTGCTCCATGATTTCGGAGTCACCTAGTGCAG”, for which the binding signal is 3280 fluorescence intensity (a.u.).

Turning to “TACCATGTCACTGACTTTGTTACCTGTCTACGATTTGCCACGGAGTCACCTAGTGCAG”, the binding signal is 3180 fluorescence intensity (a.u.).

On to “CATTACTCACGCCTCTTTGCCGACATATGGCCACGCCCCTCGGAGTCACCTAGTGCAG”, for which the binding signal was 3730 fluorescence intensity (a.u.).

For “GAGAGAGAGAGAGAGTCCACGCATCCCGCGCGCCTCCTTTCGGAGTCACCTAGTGCAG”, the binding signal is 4620 fluorescence intensity (a.u.).

“TTAGTGTCTAAAGATAGGGACTAAAGTTAAGTCACTGATGCGGAGTCACCTAGTGCAG”: the binding signal was 5610 fluorescence intensity (a.u.).

On to “AGGTCCTCGTGGACATCGTCGTGTTGTCGGGCGCGTGTTCCGGAGTCACCTAGTGCAG”, for which the binding signal was 32500 fluorescence intensity (a.u.).

In the case of “GAGAGAGGAGAAAGGGAGAGGAGAGGGTGATGACGTGGCCCGGAGTCACCTAGTGCAG”, the binding signal was 27200 fluorescence intensity (a.u.).

In the case of “GGTTTTAACCCCGATTTCGTTCGACGTGGCGGCTGAGTCACGGAGTCACCTAGTGCAG”, the binding signal was 10800 fluorescence intensity (a.u.).

Turning to “CTCCCCACCTCCGCCTCCGCCTCCGATCCGCCGCCGCCGTCGGAGTCACCTAGTGCAG”, the binding signal is 3600 fluorescence intensity (a.u.).

Consider “TCAAATATTGTAAGAGGATGATCTGTAAGTGATATGTATTCGGAGTCACCTAGTGCAG”, for which the binding signal was 3440 fluorescence intensity (a.u.).

Take “CCGGTCGCAGCTGACGTACGCAGCAGTAGGTCGCCGTCACCGGAGTCACCTAGTGCAG”: the binding signal was 7100 fluorescence intensity (a.u.).

As to “ATAAACCAACAGCGCGAGGCAAGGCGAAGACGAGAGAGTGCGGAGTCACCTAGTGCAG”, the binding signal was 4000 fluorescence intensity (a.u.).

As for “CTTGTTGGGCCATGCCTGGGCTGTGAGTGCGGCACGTGGGCGGAGTCACCTAGTGCAG”, the binding signal was 3360 fluorescence intensity (a.u.).

Turning to “AAACAGAGGGGAAGAGAGAGGATCGTCGTCGACGATGATGCGGAGTCACCTAGTGCAG”, the binding signal was 3200 fluorescence intensity (a.u.).

On to “ATGCATGCGTGTGCAGAGTTTGCGTTTCTGACGTGATATACGGAGTCACCTAGTGCAG”, for which the binding signal is 9440 fluorescence intensity (a.u.).

As for “AAGTATACAATTCATAAAATGTACTAGATTTGACCAACACCGGAGTCACCTAGTGCAG”, the binding signal is 38100 fluorescence intensity (a.u.).

With “TATTGTCTATTGCAGTGAGGATTGGCACGCTATATGTCATCGGAGTCACCTAGTGCAG”, the binding signal was 15500 fluorescence intensity (a.u.).

For the sequence “ATAGCGCCGGCGATACTGACTCCACGTAGGTTTGAGGAGTCGGAGTCACCTAGTGCAG”, the binding signal was 7280 fluorescence intensity (a.u.).

Turning to “AGCCAGCTCGTGACTAGTACACGCGGTGGCGAAGACAAAACGGAGTCACCTAGTGCAG”, the binding signal is 3820 fluorescence intensity (a.u.).

On to “ACTACTTTATTTACTGCGTCACATAAAGACCAAGCGCCACCGGAGTCACCTAGTGCAG”, for which the binding signal is 3280 fluorescence intensity (a.u.).

Regarding “CAACTCATGGATCTCGCCCACTGCTGATTTTGCATTCGGTCGGAGTCACCTAGTGCAG”, the binding signal was 3240 fluorescence intensity (a.u.).

“TCCTCTTCACGGCCCAAGATCTGCTGCTGCTGCGTGTCCCCGGAGTCACCTAGTGCAG”: the binding signal was 3670 fluorescence intensity (a.u.).

Take “TGGCGCACATGACACGCTGGGCCGACGACGTTGACCCCAGCGGAGTCACCTAGTGCAG”: the binding signal was 3600 fluorescence intensity (a.u.).

Consider “GGCTGGAAATCCACTAGTAATAGACCACCCCAAGTCCATCCGGAGTCACCTAGTGCAG”, for which the binding signal is 37400 fluorescence intensity (a.u.).

On to “TACGAGCCGCCGCTGATGGCCGTCATCATGTCGCCCAGGTCGGAGTCACCTAGTGCAG”, for which the binding signal is 3500 fluorescence intensity (a.u.).

“GGATTTGCTAGGGATTACCTCCTTGATGACACGAATAGCTCGGAGTCACCTAGTGCAG”: the binding signal is 4140 fluorescence intensity (a.u.).

Turning to “AATCCACATCACTCCCTCACACTCTCACTCGTAGCGAAGCCGGAGTCACCTAGTGCAG”, the binding signal is 5470 fluorescence intensity (a.u.).

Turning to “AGCACTATACCATATTGTCTACACGTGACACTAATAGGTTCGGAGTCACCTAGTGCAG”, the binding signal was 4290 fluorescence intensity (a.u.).
